Data: the supplement of paper PMC12823440, “Inhibitors supercharge kinase turnover through native proteolytic circuits” (Nature, 2025)
Where a name gives a salt, the structure may show the parent alone. This is one part of the list. Hit calls seldom repeat between salt and free forms of one compound.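 Kinases were expressed as nanoluciferase fusions in K562 cells and luminescence was read every 4 h between 2 and 18 h as percent of control, DMSO set to 100% and a positive control to 0%. A time point counts as decreased when the signal drops significantly (2 sigma). The hit call is the authors' own, does not follow from the count of time points alone, and its rule is not shown.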

Amino acid sequences for entries named in this document (tags omitted). A change or cut given only in a name is not applied to a line headed by its entry.
UniProt Q06187: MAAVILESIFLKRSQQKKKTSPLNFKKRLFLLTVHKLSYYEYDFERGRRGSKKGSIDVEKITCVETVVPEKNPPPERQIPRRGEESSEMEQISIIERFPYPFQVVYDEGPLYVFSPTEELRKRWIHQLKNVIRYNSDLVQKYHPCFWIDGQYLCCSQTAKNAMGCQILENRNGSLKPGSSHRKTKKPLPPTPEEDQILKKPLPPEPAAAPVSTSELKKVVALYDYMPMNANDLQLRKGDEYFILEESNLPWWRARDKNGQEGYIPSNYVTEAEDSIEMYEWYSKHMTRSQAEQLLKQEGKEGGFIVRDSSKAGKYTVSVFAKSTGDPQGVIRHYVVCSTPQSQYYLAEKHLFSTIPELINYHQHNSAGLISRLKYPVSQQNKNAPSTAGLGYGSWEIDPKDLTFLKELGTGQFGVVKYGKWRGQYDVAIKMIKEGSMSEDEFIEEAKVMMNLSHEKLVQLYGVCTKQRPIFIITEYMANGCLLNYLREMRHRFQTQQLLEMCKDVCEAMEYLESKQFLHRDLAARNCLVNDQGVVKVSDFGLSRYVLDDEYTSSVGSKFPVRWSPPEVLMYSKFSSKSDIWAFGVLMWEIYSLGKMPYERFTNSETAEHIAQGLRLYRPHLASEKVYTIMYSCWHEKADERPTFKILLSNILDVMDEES
UniProt Q9UQM7, whole entry: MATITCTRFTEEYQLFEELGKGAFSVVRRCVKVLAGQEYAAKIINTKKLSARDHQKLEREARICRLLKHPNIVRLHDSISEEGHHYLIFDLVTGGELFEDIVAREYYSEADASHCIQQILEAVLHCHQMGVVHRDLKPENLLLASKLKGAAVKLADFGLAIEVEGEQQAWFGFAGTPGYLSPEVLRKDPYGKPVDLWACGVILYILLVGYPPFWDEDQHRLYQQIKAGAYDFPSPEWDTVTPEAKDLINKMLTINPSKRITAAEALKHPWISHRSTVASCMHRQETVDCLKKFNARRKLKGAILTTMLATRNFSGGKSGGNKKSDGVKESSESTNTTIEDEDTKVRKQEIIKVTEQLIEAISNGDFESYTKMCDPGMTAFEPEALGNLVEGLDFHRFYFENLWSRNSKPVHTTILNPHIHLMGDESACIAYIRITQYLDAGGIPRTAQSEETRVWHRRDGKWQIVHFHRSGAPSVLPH
UniProt Q15131: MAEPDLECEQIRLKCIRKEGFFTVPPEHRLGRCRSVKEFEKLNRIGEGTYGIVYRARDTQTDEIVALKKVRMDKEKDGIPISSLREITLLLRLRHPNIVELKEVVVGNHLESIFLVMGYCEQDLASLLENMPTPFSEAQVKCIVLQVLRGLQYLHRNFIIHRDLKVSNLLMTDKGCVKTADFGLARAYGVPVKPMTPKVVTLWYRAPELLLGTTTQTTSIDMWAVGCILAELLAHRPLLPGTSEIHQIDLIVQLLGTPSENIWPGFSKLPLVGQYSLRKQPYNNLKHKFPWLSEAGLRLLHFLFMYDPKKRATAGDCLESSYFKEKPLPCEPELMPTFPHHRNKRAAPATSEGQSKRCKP
UniProt Q00526: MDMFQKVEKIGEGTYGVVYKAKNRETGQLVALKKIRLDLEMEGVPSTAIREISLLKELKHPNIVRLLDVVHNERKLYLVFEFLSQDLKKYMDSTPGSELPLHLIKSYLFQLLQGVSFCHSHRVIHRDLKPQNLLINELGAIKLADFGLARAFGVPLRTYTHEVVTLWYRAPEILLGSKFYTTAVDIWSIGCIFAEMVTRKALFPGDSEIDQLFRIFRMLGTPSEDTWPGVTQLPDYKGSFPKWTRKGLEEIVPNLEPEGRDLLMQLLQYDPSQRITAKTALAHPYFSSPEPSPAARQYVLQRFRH
UniProt P11802: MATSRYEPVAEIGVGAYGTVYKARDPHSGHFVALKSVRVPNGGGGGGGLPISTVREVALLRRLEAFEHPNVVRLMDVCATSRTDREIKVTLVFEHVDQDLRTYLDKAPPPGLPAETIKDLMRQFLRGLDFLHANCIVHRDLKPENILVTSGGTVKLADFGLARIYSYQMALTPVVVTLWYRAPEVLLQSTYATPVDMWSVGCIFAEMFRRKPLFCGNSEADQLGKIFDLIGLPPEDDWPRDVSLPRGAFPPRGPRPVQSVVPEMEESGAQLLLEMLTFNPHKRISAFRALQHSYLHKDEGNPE
UniProt Q00535, whole entry, looked up: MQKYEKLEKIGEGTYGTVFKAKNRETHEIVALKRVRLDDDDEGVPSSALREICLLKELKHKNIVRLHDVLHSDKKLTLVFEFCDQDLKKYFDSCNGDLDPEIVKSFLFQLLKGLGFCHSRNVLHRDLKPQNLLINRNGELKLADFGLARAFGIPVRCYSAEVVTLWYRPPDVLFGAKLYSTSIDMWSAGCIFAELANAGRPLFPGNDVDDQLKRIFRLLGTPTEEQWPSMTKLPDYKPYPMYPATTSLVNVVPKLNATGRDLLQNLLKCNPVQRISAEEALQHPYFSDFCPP
UniProt Q00534, whole entry: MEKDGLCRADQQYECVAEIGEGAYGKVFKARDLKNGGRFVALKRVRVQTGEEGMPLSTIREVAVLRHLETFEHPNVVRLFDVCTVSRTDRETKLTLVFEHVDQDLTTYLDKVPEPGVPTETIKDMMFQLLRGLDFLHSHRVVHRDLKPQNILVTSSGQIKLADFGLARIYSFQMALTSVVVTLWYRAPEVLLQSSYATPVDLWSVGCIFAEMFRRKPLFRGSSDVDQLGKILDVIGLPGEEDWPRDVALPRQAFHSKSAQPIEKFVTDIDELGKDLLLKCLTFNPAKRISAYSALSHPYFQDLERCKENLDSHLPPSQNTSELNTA
UniProt P50613: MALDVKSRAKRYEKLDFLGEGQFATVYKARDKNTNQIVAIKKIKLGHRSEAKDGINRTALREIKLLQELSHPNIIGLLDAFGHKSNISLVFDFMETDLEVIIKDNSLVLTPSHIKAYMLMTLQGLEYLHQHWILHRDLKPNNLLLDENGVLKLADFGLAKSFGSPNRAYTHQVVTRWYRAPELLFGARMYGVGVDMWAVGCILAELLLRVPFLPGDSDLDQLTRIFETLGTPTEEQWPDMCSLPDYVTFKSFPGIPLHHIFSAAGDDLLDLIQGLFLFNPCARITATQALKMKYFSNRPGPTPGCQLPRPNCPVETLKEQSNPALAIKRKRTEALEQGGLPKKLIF
UniProt O96017, whole entry: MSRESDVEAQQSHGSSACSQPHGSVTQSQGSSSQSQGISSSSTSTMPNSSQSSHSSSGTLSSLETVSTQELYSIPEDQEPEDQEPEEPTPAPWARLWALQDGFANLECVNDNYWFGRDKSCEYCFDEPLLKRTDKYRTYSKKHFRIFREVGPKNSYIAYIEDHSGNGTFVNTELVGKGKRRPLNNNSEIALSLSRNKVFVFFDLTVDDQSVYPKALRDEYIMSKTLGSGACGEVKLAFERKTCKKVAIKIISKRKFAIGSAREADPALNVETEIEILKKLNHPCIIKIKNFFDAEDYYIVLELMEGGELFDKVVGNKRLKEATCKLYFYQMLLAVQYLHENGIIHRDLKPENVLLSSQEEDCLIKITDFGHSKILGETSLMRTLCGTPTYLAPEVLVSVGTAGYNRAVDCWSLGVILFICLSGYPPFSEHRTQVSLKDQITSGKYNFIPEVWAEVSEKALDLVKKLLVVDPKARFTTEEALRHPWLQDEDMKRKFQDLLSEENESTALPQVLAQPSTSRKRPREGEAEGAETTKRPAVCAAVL
UniProt P41240: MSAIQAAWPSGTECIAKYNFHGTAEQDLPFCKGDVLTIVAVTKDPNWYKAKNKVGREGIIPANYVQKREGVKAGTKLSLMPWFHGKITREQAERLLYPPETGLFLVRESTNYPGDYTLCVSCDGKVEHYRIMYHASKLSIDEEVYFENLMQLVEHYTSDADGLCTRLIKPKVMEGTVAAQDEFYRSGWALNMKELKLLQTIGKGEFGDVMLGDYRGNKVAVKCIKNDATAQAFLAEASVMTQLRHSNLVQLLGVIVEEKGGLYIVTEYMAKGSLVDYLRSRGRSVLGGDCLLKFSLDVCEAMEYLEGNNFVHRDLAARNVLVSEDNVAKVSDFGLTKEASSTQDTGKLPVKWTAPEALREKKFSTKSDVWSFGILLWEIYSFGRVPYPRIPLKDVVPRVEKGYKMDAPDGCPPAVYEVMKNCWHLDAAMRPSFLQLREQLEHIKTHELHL
UniProt P48729: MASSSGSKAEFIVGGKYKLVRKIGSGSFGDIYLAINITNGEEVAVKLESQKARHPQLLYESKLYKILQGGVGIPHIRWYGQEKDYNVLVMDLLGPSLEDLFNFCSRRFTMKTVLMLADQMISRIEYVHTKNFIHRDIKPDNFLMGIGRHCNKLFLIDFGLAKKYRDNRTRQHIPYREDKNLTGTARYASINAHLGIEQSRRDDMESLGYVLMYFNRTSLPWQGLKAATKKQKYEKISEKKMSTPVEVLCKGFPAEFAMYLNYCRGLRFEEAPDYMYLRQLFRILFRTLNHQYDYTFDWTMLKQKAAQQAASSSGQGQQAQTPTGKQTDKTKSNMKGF
UniProt Q08345: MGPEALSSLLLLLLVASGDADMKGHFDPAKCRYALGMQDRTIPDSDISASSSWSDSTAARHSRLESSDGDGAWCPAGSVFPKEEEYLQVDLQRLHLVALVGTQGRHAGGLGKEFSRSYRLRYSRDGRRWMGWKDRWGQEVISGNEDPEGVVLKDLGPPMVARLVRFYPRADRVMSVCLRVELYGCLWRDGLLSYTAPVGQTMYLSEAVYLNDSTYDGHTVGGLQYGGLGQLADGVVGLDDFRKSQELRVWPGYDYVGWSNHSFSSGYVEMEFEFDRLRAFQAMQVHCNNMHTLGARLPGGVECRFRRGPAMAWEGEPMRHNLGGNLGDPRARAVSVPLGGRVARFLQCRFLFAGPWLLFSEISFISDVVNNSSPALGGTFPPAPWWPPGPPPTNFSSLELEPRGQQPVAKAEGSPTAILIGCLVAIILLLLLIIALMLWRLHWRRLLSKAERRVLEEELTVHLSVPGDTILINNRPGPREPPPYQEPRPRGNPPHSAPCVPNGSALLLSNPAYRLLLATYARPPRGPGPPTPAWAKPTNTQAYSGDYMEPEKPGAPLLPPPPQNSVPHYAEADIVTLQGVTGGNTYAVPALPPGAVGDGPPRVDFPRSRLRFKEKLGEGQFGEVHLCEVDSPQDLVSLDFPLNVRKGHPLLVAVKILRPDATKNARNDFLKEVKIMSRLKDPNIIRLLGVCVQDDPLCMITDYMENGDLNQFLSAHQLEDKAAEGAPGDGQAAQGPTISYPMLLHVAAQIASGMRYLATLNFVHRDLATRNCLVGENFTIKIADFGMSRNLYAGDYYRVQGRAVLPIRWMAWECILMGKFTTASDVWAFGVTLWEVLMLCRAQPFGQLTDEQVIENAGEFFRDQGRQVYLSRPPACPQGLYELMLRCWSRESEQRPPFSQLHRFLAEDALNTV
UniProt Q9Y463, whole entry, looked up: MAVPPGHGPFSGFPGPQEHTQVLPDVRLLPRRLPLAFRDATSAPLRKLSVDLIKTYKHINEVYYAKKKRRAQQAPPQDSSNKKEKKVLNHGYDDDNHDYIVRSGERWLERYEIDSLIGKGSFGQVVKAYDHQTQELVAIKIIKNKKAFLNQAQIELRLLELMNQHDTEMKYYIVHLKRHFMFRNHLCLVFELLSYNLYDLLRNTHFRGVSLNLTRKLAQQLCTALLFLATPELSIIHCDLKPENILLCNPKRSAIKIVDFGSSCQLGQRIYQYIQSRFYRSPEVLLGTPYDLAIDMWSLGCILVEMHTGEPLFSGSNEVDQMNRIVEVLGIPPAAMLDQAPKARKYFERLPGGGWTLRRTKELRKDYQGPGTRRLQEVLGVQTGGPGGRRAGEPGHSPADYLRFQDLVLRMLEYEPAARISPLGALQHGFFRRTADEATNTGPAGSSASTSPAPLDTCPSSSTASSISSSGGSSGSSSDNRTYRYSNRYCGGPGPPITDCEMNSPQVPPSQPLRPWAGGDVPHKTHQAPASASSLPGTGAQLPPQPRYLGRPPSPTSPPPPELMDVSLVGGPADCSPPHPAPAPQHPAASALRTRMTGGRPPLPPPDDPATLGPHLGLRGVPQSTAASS
UniProt Q92630: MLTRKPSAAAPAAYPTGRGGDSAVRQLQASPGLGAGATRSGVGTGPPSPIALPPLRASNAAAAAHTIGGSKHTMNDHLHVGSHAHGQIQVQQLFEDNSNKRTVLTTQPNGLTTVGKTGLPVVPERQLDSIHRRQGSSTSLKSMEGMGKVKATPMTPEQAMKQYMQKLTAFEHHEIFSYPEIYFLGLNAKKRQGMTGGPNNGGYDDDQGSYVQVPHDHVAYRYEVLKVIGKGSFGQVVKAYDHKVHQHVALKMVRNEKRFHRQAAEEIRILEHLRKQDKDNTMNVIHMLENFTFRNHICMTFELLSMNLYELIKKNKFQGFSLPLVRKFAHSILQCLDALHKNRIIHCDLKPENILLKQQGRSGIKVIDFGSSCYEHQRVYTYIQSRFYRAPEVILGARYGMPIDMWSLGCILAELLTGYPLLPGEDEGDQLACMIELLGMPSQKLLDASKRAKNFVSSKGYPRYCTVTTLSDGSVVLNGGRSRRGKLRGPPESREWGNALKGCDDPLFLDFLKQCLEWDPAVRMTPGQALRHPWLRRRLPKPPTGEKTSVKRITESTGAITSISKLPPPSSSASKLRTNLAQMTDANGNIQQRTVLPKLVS

Experiments:
Test in all cases: kinase-Nluc reporter destabilization hit call (1 = scored as downregulated) (binary); higher = compound decreases kinase abundance
Conditions in all cases: K562; 2-18 h
[1] = tested on: BRAF_V600E
[2] = biological target: BTK (UniProt Q06187)
[3] = biological target: CAMK2A (UniProt Q9UQM7)
[4] = biological target: CAMK2G (UniProt Q13555)
[5] = biological target: CDK10 (UniProt Q15131)
[6] = biological target: CDK2 (UniProt P24941)
[7] = biological target: CDK3 (UniProt Q00526)
[8] = biological target: CDK4 (UniProt P11802)
[9] = biological target: CDK5 (UniProt Q00535)
[10] = biological target: CDK6 (UniProt Q00534)
[11] = biological target: CDK7 (UniProt P50613)
[12] = biological target: CDK9 (UniProt P50750)
[13] = biological target: CHEK2 (UniProt O96017)
[14] = biological target: CSF1R (UniProt P07333)
[15] = biological target: CSK (UniProt P41240)
[16] = biological target: CSNK1A1 (UniProt P48729)
[17] = biological target: CSNK1D (UniProt P48730)
[18] = biological target: DDR1 (UniProt Q08345)
[19] = biological target: DYRK1B (UniProt Q9Y463)
[20] = biological target: DYRK2 (UniProt Q92630)

Measured: kinase-Nluc reporter destabilization hit call

O=C(Nc1ccc(CN2CCOCC2)cc1)c1ccc(-c2cccc(Cl)c2)o1 (10 µM)
inactive: [1] 0 | [2] 0 | [3] 0 | [4] 0 | [5] 0 | [6] 0 | [7] 0 | [8] 0 | [9] 0 | [10] 0 | [11] 0 | [12] 0 | [13] 0 | [14] 0 | [15] 0 | [16] 0 | [17] 0 | [18] 0 | [19] 0 | [20] 0

CC1CCc2c(cc(Br)c(F)c2Br)N1C=O (stereo not given) (10 µM)
inactive: [1] 0 | [2] 0 | [3] 0 | [4] 0 | [5] 0 | [6] 0 | [7] 0 | [8] 0 | [9] 0 | [10] 0 | [11] 0 | [12] 0 | [13] 0 | [14] 0 | [15] 0 | [16] 0 | [17] 0 | [18] 0 | [19] 0 | [20] 0

C[C@H](c1ccnc(Nc2nc3ccc(-c4cc(N(C)C)ncn4)cc3[nH]2)c1)N1CCN(C(=O)CC(F)(F)F)CC1 (2.5 µM)
inactive: [1] 0 | [2] 0 | [3] 0 | [4] 0 | [5] 0 | [6] 0 | [7] 0 | [8] 0 | [9] 0 | [10] 0 | [11] 0 | [12] 0 | [13] 0 | [14] 0 | [15] 0 | [16] 0 | [17] 0 | [18] 0 | [19] 0 | [20] 0

COc1cc2nccc(Oc3ccc(NC(=O)NC4CC4)c(Cl)c3)c2cc1C(N)=O [Lenvatinib] (10 µM)
inactive: [1] 0 | [2] 0 | [3] 0 | [4] 0 | [5] 0 | [6] 0 | [7] 0 | [8] 0 | [9] 0 | [10] 0 | [11] 0 | [12] 0 | [13] 0 | [14] 0 | [15] 0 | [16] 0 | [17] 0 | [18] 0 | [19] 0 | [20] 0

C=C(CC[C@@H](C(=O)O)[C@H]1[C@H](O)C[C@@]2(C)C3=C(CC[C@]12C)[C@@]1(C)CC[C@H](OC(C)=O)C(C)(C)[C@@H]1CC3)C(C)C [Pachymic acid] (10 µM)
inactive: [1] 0 | [2] 0 | [3] 0 | [4] 0 | [5] 0 | [6] 0 | [7] 0 | [8] 0 | [9] 0 | [10] 0 | [11] 0 | [12] 0 | [13] 0 | [14] 0 | [15] 0 | [16] 0 | [17] 0 | [18] 0 | [19] 0 | [20] 0

CC(C)(C)c1nc(-c2cccc(NS(=O)(=O)c3c(F)cccc3F)c2F)c(-c2ccnc(N)n2)s1 [Dabrafenib] (2.5 µM)
inactive: [1] 0 | [2] 0 | [3] 0 | [4] 0 | [5] 0 | [6] 0 | [7] 0 | [8] 0 | [9] 0 | [10] 0 | [11] 0 | [12] 0 | [13] 0 | [14] 0 | [15] 0 | [16] 0 | [17] 0 | [18] 0 | [19] 0 | [20] 0

O=C(NCCN1CCCC1)c1cc(-c2ccc(CN3CCOCC3)cc2)nc2ccc(F)cc12 (10 µM)
inactive: [1] 0 | [2] 0 | [3] 0 | [4] 0 | [5] 0 | [6] 0 | [7] 0 | [8] 0 | [9] 0 | [10] 0 | [11] 0 | [12] 0 | [13] 0 | [14] 0 | [15] 0 | [16] 0 | [17] 0 | [18] 0 | [19] 0 | [20] 0

O=C(NOCC(O)CO)c1cc(Br)c(F)c(F)c1Nc1ccc(I)cc1F (stereo not given) (2.5 µM)
inactive: [1] 0 | [2] 0 | [3] 0 | [4] 0 | [5] 0 | [6] 0 | [7] 0 | [8] 0 | [9] 0 | [10] 0 | [11] 0 | [12] 0 | [13] 0 | [14] 0 | [15] 0 | [16] 0 | [17] 0 | [18] 0 | [19] 0 | [20] 0

Nc1nc2ccc(Cl)cc2c2nc(-c3ccco3)nn12 (10 µM)
inactive: [1] 0 | [2] 0 | [3] 0 | [4] 0 | [5] 0 | [6] 0 | [7] 0 | [8] 0 | [9] 0 | [10] 0 | [11] 0 | [12] 0 | [13] 0 | [14] 0 | [15] 0 | [16] 0 | [17] 0 | [18] 0 | [19] 0 | [20] 0

O=Nc1c(-c2c(O)[nH]c3ccc(F)cc23)[nH]c2ccccc12 [5'-Fluoroindirubinoxime] (10 µM)
inactive: [1] 0 | [2] 0 | [3] 0 | [4] 0 | [5] 0 | [6] 0 | [7] 0 | [8] 0 | [9] 0 | [10] 0 | [11] 0 | [12] 0 | [13] 0 | [14] 0 | [15] 0 | [16] 0 | [17] 0 | [18] 0 | [19] 0 | [20] 0

Cc1nc2sccn2c(=O)c1CCN1CCC(=C(c2ccccc2)c2ccc(F)cc2)CC1 (10 µM)
inactive: [1] 0 | [2] 0 | [3] 0 | [4] 0 | [5] 0 | [6] 0 | [7] 0 | [8] 0 | [9] 0 | [10] 0 | [11] 0 | [12] 0 | [13] 0 | [14] 0 | [15] 0 | [16] 0 | [17] 0 | [18] 0 | [19] 0 | [20] 0

CNC(=O)c1ccc(C)c(-n2c(C)cc(OCc3ccc(F)cc3F)c(Br)c2=O)c1 (10 µM)
inactive: [1] 0 | [2] 0 | [3] 0 | [4] 0 | [5] 0 | [6] 0 | [7] 0 | [8] 0 | [9] 0 | [10] 0 | [11] 0 | [12] 0 | [13] 0 | [14] 0 | [15] 0 | [16] 0 | [17] 0 | [18] 0 | [19] 0 | [20] 0

CCc1cc2c(cc1N1CCC(N3CCOCC3)CC1)C(C)(C)c1[nH]c3cc(C#N)ccc3c1C2=O [Alectinib (Hydrochloride)] (2 µM)
inactive: [1] 0 | [2] 0 | [3] 0 | [4] 0 | [5] 0 | [6] 0 | [7] 0 | [8] 0 | [9] 0 | [10] 0 | [11] 0 | [12] 0 | [13] 0 | [14] 0 | [15] 0 | [16] 0 | [17] 0 | [18] 0 | [19] 0 | [20] 0

Cc1ccccc1-c1c2nccc(-c3ccc(F)cc3F)c2cc[n+]1[O-] (10 µM)
inactive: [1] 0 | [2] 0 | [3] 0 | [4] 0 | [5] 0 | [6] 0 | [7] 0 | [8] 0 | [9] 0 | [10] 0 | [11] 0 | [12] 0 | [13] 0 | [14] 0 | [15] 0 | [16] 0 | [17] 0 | [18] 0 | [19] 0 | [20] 0

Nc1ccc(-c2cnc(N)c(-c3ccc(Cl)cc3)c2)cn1 (10 µM)
inactive: [1] 0 | [2] 0 | [3] 0 | [4] 0 | [5] 0 | [6] 0 | [7] 0 | [8] 0 | [9] 0 | [10] 0 | [11] 0 | [12] 0 | [13] 0 | [14] 0 | [15] 0 | [16] 0 | [17] 0 | [18] 0 | [19] 0 | [20] 0

O=C(Nc1cn[nH]c1-c1ccccn1)c1nn(C2CCNCC2)cc1Cl (10 µM)
inactive: [1] 0 | [2] 0 | [3] 0 | [4] 0 | [5] 0 | [6] 0 | [7] 0 | [8] 0 | [9] 0 | [10] 0 | [11] 0 | [12] 0 | [13] 0 | [14] 0 | [15] 0 | [16] 0 | [17] 0 | [18] 0 | [19] 0 | [20] 0

NS(=O)(=O)c1ccc(-n2nc(C(F)(F)F)cc2-c2ccc(Cl)cc2)cc1 (10 µM)
inactive: [1] 0 | [2] 0 | [3] 0 | [4] 0 | [5] 0 | [6] 0 | [7] 0 | [8] 0 | [9] 0 | [10] 0 | [11] 0 | [12] 0 | [13] 0 | [14] 0 | [15] 0 | [16] 0 | [17] 0 | [18] 0 | [19] 0 | [20] 0

Two compounds drawn at random from those above, as already listed:
C=C(CC[C@@H](C(=O)O)[C@H]1[C@H](O)C[C@@]2(C)C3=C(CC[C@]12C)[C@@]1(C)CC[C@H](OC(C)=O)C(C)(C)[C@@H]1CC3)C(C)C [Pachymic acid] (10 µM)
inactive: [1] 0 | [2] 0 | [3] 0 | [4] 0 | [5] 0 | [6] 0 | [7] 0 | [8] 0 | [9] 0 | [10] 0 | [11] 0 | [12] 0 | [13] 0 | [14] 0 | [15] 0 | [16] 0 | [17] 0 | [18] 0 | [19] 0 | [20] 0

COc1cc2nccc(Oc3ccc(NC(=O)NC4CC4)c(Cl)c3)c2cc1C(N)=O [Lenvatinib] (10 µM)
inactive: [1] 0 | [2] 0 | [3] 0 | [4] 0 | [5] 0 | [6] 0 | [7] 0 | [8] 0 | [9] 0 | [10] 0 | [11] 0 | [12] 0 | [13] 0 | [14] 0 | [15] 0 | [16] 0 | [17] 0 | [18] 0 | [19] 0 | [20] 0
